# Measurements from the supplement of paper PMC8728848.
# The other results are listed elsewhere or left out.
# B1: AT3G09350(27) (Arabidopsis thaliana), Q84J81 (protein)
# chain: MAKDGPNWDGLLKWSLSHADGTRPTRQLSEEDRKWFMEAMQSQTVDVVKRMKEITLVMQTPEQVLVEHGVTPEDIQDLLDELQEHVESIDMANDLHSIGGLVPLLSFLKNSHANIRAKAADVVSTIVQNNPRSQELVMETNALESLLSNFTSDTDIHARTQALGAISSLIRHNKPGVTAFKLANGYAGLRDALASDSVRFQRKALNLLQYLLQEDDSDRSIATGLGFPRVMMHLASSDDAEIREAALRGLLELSREKNDGSSSIDKSDEKLRQLLEERIKGITLMSQEDLETVKEERQLVDLLWSICYNEPSSLREKGLVVLPGEDALPPDVASKLFEPPLRASAANRNATEKKDEPMKLLGP
# Tests used:
# Experiment in all cases: glycan array binding signal (z-score within array); higher = stronger binding
# Settings in all cases: glycan notation: IUPAC condensed, linker removed
# [1] = target: Fuc(a1-2)[GalNAc(a1-3)]Gal(b1-3)GlcNAc(b1-3)GalNAc
# Procedure, shortened: (§1)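 Glycan array data were curated from 3228 arrays in the Consortium for Functional Glycomics database and kept only where the protein sequence was available. Glycan names were converted to IUPAC-condensed notation, and columns mapping to the same glycan were averaged. The binding signal is a within-array Z-score, averaged across arrays of the same protein sequence at different concentrations or buffers and across linkers. Negative Z-scores can be read as non-binding.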
# [2] = target: Fuc(a1-2)[GalNAc(a1-3)]Gal(b1-3)GlcNAc(b1-6)GalNAc
# Procedure, shortened: as §1
# [3] = target: Fuc(a1-2)[GalNAc(a1-3)]Gal(b1-4)Glc
# Procedure, shortened: as §1
# [4] = target: Fuc(a1-2)[GalNAc(a1-3)]Gal(b1-4)GlcNAc
# Procedure, shortened: as §1
# [5] = target: Fuc(a1-2)[GalNAc(a1-3)]Gal(b1-4)GlcNAc(b1-2)Man
# Procedure, shortened: as §1
# [6] = target: Fuc(a1-2)[GalNAc(a1-3)]Gal(b1-4)GlcNAc(b1-2)Man(a1-3)[Fuc(a1-2)[GalNAc(a1-3)]Gal(b1-4)GlcNAc(b1-2)Man(a1-6)]Man(b1-4)GlcNAc(b1-4)GlcNAc
# Procedure, shortened: as §1
# [7] = target: Fuc(a1-2)[GalNAc(a1-3)]Gal(b1-4)GlcNAc(b1-2)Man(a1-3)[Fuc(a1-2)[GalNAc(a1-3)]Gal(b1-4)GlcNAc(b1-2)Man(a1-6)]Man(b1-4)GlcNAc(b1-4)[Fuc(a1-6)]GlcNAc
# Procedure, shortened: as §1
# [8] = target: Fuc(a1-2)[GalNAc(a1-3)]Gal(b1-4)GlcNAc(b1-3)Gal(b1-4)GlcNAc
# Procedure, shortened: as §1
# [9] = target: Fuc(a1-2)[GalNAc(a1-3)]Gal(b1-4)GlcNAc(b1-3)Gal(b1-4)GlcNAc(b1-3)Gal(b1-4)GlcNAc
# Procedure, shortened: as §1
# [10] = target: Fuc(a1-2)[GalNAc(a1-3)]Gal(b1-4)GlcNAc(b1-3)GalNAc
# Procedure, shortened: as §1
# [11] = target: Fuc(a1-2)[GalNAc(a1-3)]Gal(b1-4)GlcNAc(b1-3)[Fuc(a1-2)[GalNAc(a1-3)]Gal(b1-4)GlcNAc(b1-6)]GalNAc
# Procedure, shortened: as §1
# [12] = target: Fuc(a1-2)[GalNAc(a1-3)]Gal(b1-4)GlcNAc(b1-6)GalNAc
# Procedure, shortened: as §1
# [13] = target: Fuc(a1-2)[GalNAc(a1-3)]Gal(b1-4)[Fuc(a1-3)]GlcNAc
# Procedure, shortened: as §1
# [14] = target: Fuc(a1-2)[GalNAc(a1-3)]Gal(b1-4)[Fuc(a1-3)]GlcNAc(b1-3)GalNAc
# Procedure, shortened: as §1
# [15] = target: Fuc(a1-2)[GalNAc(a1-4)]Gal(b1-4)GlcNAc
# Procedure, shortened: as §1
# [16] = target: Fuc(a1-2)[GalNAc(b1-3)]Gal
# Procedure, shortened: as §1
# [17] = target: Fuc(a1-3)GlcNAc
# Procedure, shortened: as §1
# [18] = target: Fuc(a1-3)[Gal(b1-4)]Glc6S
# Procedure, shortened: as §1
# [19] = target: Fuc(a1-3)[Gal(b1-4)]GlcNAc
# Procedure, shortened: as §1
# [20] = target: Fuc(a1-3)[Gal(b1-4)]GlcNAc(b1-2)Man
# Procedure, shortened: as §1
# [21] = target: Fuc(a1-3)[Gal(b1-4)]GlcNAc(b1-2)Man(a1-3)[Fuc(a1-3)[Gal(b1-4)]GlcNAc(b1-2)Man(a1-6)]Man(b1-4)GlcNAc(b1-4)GlcNAc
# Procedure, shortened: as §1
# [22] = target: Fuc(a1-3)[Gal(b1-4)]GlcNAc(b1-2)Man(a1-3)[Fuc(a1-3)[Gal(b1-4)]GlcNAc(b1-2)Man(a1-6)]Man(b1-4)GlcNAc(b1-4)[Fuc(a1-6)]GlcNAc
# Procedure, shortened: as §1
# [23] = target: Fuc(a1-3)[Gal(b1-4)]GlcNAc(b1-3)Gal(b1-3)[Fuc(a1-4)]GlcNAc
# Procedure, shortened: as §1
# [24] = target: Fuc(a1-3)[Gal(b1-4)]GlcNAc(b1-3)Gal(b1-4)[Fuc(a1-3)]GlcNAc
# Procedure, shortened: as §1
# [25] = target: Fuc(a1-3)[Gal(b1-4)]GlcNAc(b1-3)Gal(b1-4)[Fuc(a1-3)]GlcNAc(b1-3)Gal(b1-4)[Fuc(a1-3)]GlcNAc
# Procedure, shortened: as §1
# [26] = target: Fuc(a1-3)[Gal(b1-4)]GlcNAc(b1-3)GalNAc
# Procedure, shortened: as §1
# [27] = target: Fuc(a1-3)[Gal(b1-4)]GlcNAc(b1-6)GalNAc
# Procedure, shortened: as §1
# [28] = target: Fuc(a1-3)[Gal(b1-4)]GlcNAc(b1-6)[Gal(b1-3)GlcNAc(b1-3)]Gal(b1-4)Glc
# Procedure, shortened: as §1
# [29] = target: Fuc(a1-3)[Gal(b1-4)]GlcNAc6S
# Procedure, shortened: as §1
# [30] = target: Fuc(a1-3)[Gal3S(b1-4)]Glc
# Procedure, shortened: as §1
# [31] = target: Fuc(a1-3)[Gal3S(b1-4)]GlcNAc
# Procedure, shortened: as §1
# [32] = target: Fuc(a1-3)[Gal3S(b1-4)]GlcNAc6S
# Procedure, shortened: as §1
# [33] = target: Fuc(a1-3)[GalNAc(b1-4)]GlcNAc
# Procedure, shortened: as §1
# [34] = target: Fuc(a1-3)[GalNAc(b1-4)]GlcNAc6S
# Procedure, shortened: as §1
# [35] = target: Fuc(a1-4)GlcNAc
# Procedure, shortened: as §1
# [36] = target: Fuc(b1-3)GlcNAc
# Procedure, shortened: as §1
# [37] = target: Gal(a1-2)Gal
# Procedure, shortened: as §1
binder,measurement,setting,value
B1,glycan array binding signal (z-score),[1],0.1
same,glycan array binding signal (z-score),[2],-0.293
same,glycan array binding signal (z-score),[3],-0.001
same,glycan array binding signal (z-score),[4],-0.334
same,glycan array binding signal (z-score),[5],-0.584
same,glycan array binding signal (z-score),[6],0.499
same,glycan array binding signal (z-score),[7],0.007
same,glycan array binding signal (z-score),[8],-0.256
same,glycan array binding signal (z-score),[9],-0.337
same,glycan array binding signal (z-score),[10],-0.271
same,glycan array binding signal (z-score),[11],-0.282
same,glycan array binding signal (z-score),[12],-0.317
same,glycan array binding signal (z-score),[13],0.498
same,glycan array binding signal (z-score),[14],5.85
same,glycan array binding signal (z-score),[15],-0.215
same,glycan array binding signal (z-score),[16],-0.043
same,glycan array binding signal (z-score),[17],0.323
same,glycan array binding signal (z-score),[18],0.877
same,glycan array binding signal (z-score),[19],-0.773
same,glycan array binding signal (z-score),[20],-0.779
same,glycan array binding signal (z-score),[21],-0.611
same,glycan array binding signal (z-score),[22],0.466
same,glycan array binding signal (z-score),[23],-0.365
same,glycan array binding signal (z-score),[24],0.668
same,glycan array binding signal (z-score),[25],0.666
same,glycan array binding signal (z-score),[26],-0.11
same,glycan array binding signal (z-score),[27],0.461
same,glycan array binding signal (z-score),[28],-0.671
same,glycan array binding signal (z-score),[29],0.496
same,glycan array binding signal (z-score),[30],-0.306
same,glycan array binding signal (z-score),[31],-0.67
same,glycan array binding signal (z-score),[32],0.118
same,glycan array binding signal (z-score),[33],3.56
same,glycan array binding signal (z-score),[34],-0.179
same,glycan array binding signal (z-score),[35],0.55
same,glycan array binding signal (z-score),[36],-0.444
same,glycan array binding signal (z-score),[37],-0.39

# 2 entries from above, reformatted:
binder | measurement | setting | value
B1 | glycan array binding signal (z-score) | [2] | -0.293
same | glycan array binding signal (z-score) | [3] | -0.001
